Measured values taken from article PMC7905942 (ACS Omega, 2021).

Tested on: SW620, PC3 and NCI-H23 cancer cell lines
Assay: SRB cytotoxicity, range over three human cancer cell lines
Assay type: cell-based
Details: read-out: Cytotoxicity IC50 values (range over cell lines)

O=C(CCCCCCC(=O)Nc1ccccc1)NO [SAHA, suberoylanilide hydroxamic acid, reference compound]
IC50: 1450 to 1660 nM
